## Library screen at single concentrations

The values are deposited in ChEMBL (CHEMBL3988442, “University of Dundee, Small-Polar-MMV Screening Library” (2021)).

Each number is a percent effect as filed.
The controls that fix the scale are not given in the record; negative values are as filed.
Compounds were drawn at random from those tested, without regard to their results.
Two or more numbers in one place are separate tests of the same structure; such repeats can differ widely.

Mtb cholesterol medium: 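Phenotypic screen: M. tuberculosis growth, cholesterol and DPPC medium, 4 days; the read-out is not stated. Tested at 50 µM. The record gives no direction; compounds that gave an IC50 in retests scored well above the rest, so higher reads as more growth inhibition. Of about 69,000 compounds tested this way, about 370 (0.54%) reached 50% or more in at least one test.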
Mtb glucose medium: 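Growth of Mycobacterium tuberculosis over 3 days (7H9 medium with glucose and tyloxapol); the read-out is not stated. Concentration: 50 µM. Higher reads as more growth inhibition (inferred: compounds with an IC50 in retests scored well above the rest). Of about 69,000 compounds tested this way, about 760 (1.1%) reached 50% or more in at least one test.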

| # | Compound | Mtb cholesterol medium | Mtb glucose medium |
|---|---|---|---|
| 1 | `Cl.NC(c1ccc(Cl)cc1)c1cccs1` (stereo not drawn) | -11.29 | -34.97 |
| 2 | `COCC(=O)NC1(c2cccc(C(F)(F)F)c2)CCC1` | -4.533 | -7.465 |
| 3 | `O=C(Cc1ccccc1)N1CCC2(CC(=O)N(c3ccsc3)C2)C1` (stereo not drawn) | 12.41 and 9.628 | 10.38 |
| 4 | `CSc1nccc(NCC2CNCCO2)n1` (stereo not drawn) | -2.754 | -20.12 |
| 5 | `CN(C)Cc1cn2c(n1)CN(CC1CCCC1)CC2.O=C(O)C(F)(F)F.O=C(O)C(F)(F)F` | -1.156 and 3.241 | 0.1318 and 0.25 |
| 6 | `CC(C)(C)c1nnnn1CC(=O)N(CCC#N)c1ccccc1` | -10.69 | -3.108 |
| 7 | `COCCNC(=O)CCNC(=O)c1ccc(N2CCC(C)=N2)cc1` | 5.17 | 6.431 |
| 8 | `O=C(O)C(F)(F)F.[H][C@@]12COC[C@]1(C(=O)NC1CC(F)(F)C1)CN(Cc1ccccc1)C2` | 2.047 | 10.99 |
| 9 | `O=S(=O)(NCc1ccc(S(=O)(=O)N2CCCC2)s1)c1ccc(F)cc1Cl` | -28.8 | -3.575 |
| 10 | `COCC(=O)N1CCC2(CCc3ccc(F)cc32)CC1.Cl` | 1.932 | -23.91 and 4.673 |
| 11 | `CN(C)S(=O)(=O)N1CC[C@]2(C[C@H](OCc3ccncc3)CO2)C1.O=C(O)C(F)(F)F` | 6.261 | -0.4609 and 14.69 |
| 12 | `Cc1ncsc1CN1Cc2cn(C)nc2C(COCC2CC2)C1.O=C(O)C(F)(F)F.O=C(O)C(F)(F)F` (stereo not drawn) | -33.93 | -43.24 |
| 13 | `Cc1ccc(S(=O)(=O)Nc2ccc(-n3cccc3C(=O)O)c(C)c2)s1` | 0.2314 | -6.054 and 17.21 |
| 14 | `O=C(NCC1CCS(=O)(=O)C1)c1sccc1-c1ccc(F)cc1` (stereo not drawn) | 4.12 | 28.01 |
| 15 | `O=C(NCC1CCC1)c1ccnc(-n2ccnc2)c1` | 21.23 | 40.19 |
| 16 | `Cc1ccc(NC2CCN(C(=O)CCc3c(C)noc3C)CC2)nn1` | 2.817 | -2.716 and 5.062 |
| 17 | `CC(O)c1cn(CC2CCN(C(=O)CN(C)C(C)C)CC2)nn1` (stereo not drawn) | 14.31 | 11.12 and -3.931 |
| 18 | `CC(Oc1ccccc1C(F)(F)F)C(=O)NCCCC(N)=O` (stereo not drawn) | -8.205 and -6.906 | -34 |
| 19 | `[H][C@]12CC[C@]([H])(CN(c3cnccn3)C1)N(C(=O)c1cccnc1SC)C2` | -13.08 | -9.919 |
| 20 | `Cc1nc(C2CCCN(S(C)(=O)=O)C2)sc1Br` (stereo not drawn) | 3.114 | -25.39 |
| 21 | `C=C(C)CN1CCN(Cc2cnc(OC)nc2)CC1` | -3.827 | -13.18 |
| 22 | `N#Cc1ccc(N2CCC(OC3CCOCC3)CC2)cc1Cl` | 15.18 | 12.98 and 11.27 |
| 23 | `CCc1nc(CC)n(CC(=O)NCc2cccc(C)c2)n1` | -9.359 | 2.979 |
| 24 | `O=C1C(NS(=O)(=O)c2cccc(F)c2)CCN1Cc1ccccc1` (stereo not drawn) | -3.285 | -27.81 |
| 25 | `O=C(CCC1CCCO1)NCCCC(=O)Nc1ccc(Cl)cc1` (stereo not drawn) | -24.24 | -13.72 |
| 26 | `COc1c(C)cnc(CN2CCOC(Cn3nc(C)cc3C)C2)c1C` (stereo not drawn) | 20.61 | -25.28 |
| 27 | `CO[C@H]1CCN(c2ccc(C)nn2)[C@H]1Cc1cnn(C)c1` | -0.1745 and -0.2598 | -40.26 |
| 28 | `O=S(=O)(c1ccccc1)N1CCOC(Cn2ccnc2)C1` (stereo not drawn) | -15.15 | -9.986 |
| 29 | `CC(CO)CN(Cc1ccccc1)Cc1cnc2ccccc2n1` (stereo not drawn) | -0.4807 | 4.273 and -3.805 |
| 30 | `Cc1nn(C)c(C)c1C1CCCN1C(=O)c1cnccn1` (stereo not drawn) | -14.93 | 14.37 |
| 31 | `COCC(=O)N1CCC(c2nccn2CC2CC2)CC1` | 21.79 | 7.56 |
| 32 | `COc1cc(-c2nccn2C(C)CCn2cccn2)cc2c1OCO2` (stereo not drawn) | 28.59 | 16.43 |
| 33 | `COc1ccc(-n2ncc(C(C)NCc3cnc(SC)nc3)c2C)cc1` (stereo not drawn) | 17.07 | 17.34 and 3.843 |
| 34 | `O=C(NC1CC1)N1CC[C@@H](O)[C@@H]1Cc1ccccc1` | -1.619 and -11.49 | -10.6 |
| 35 | `O=C(NCCn1cnc(C2CCCC2)cc1=O)c1ccc(=O)[nH]n1` | -0.7108 | -7.04 and -4.291 |
| 36 | `O=C(O)C(F)(F)F.[H][C@]12CCN(C(=O)c3ccc4[nH]ccc4c3)C[C@@]1([H])OCCN(C)C2` | -12.18 | -2.89 |
| 37 | `CCCn1nccc1-c1cc(C2CCN(C(C)=O)CC2)ccn1` | -3.804 | -11.14 |
| 38 | `CCc1nc(C2CCCN(C(=O)c3cn(C)nc3C)C2)no1` (stereo not drawn) | -14.69 | 17.12 |
| 39 | `COc1ccccc1N1CCN(Cc2nccc(OC)c2OC)CC1=O` | 4.471 | 7.051 |
| 40 | `O=S(=O)(c1cnccc1N1CCN(CCO)CC1)N1CCOCC1` | -11.07 | -3.14 |
| 41 | `CCc1cc(NCc2ccc(-n3cncn3)c(C)c2)n(C)n1` | -10.7 | 3.031 |
| 42 | `CCN(C)S(=O)(=O)NCC1(c2cccc(Br)c2)CC1` | -3.168 | 21.12 |
| 43 | `Cc1cc(N2CCC(N(C)C(=O)c3ccccc3)CC2)nc(C)n1` | -1.73 | -5.348 and 11.62 |
| 44 | `Cc1ccc(CN2CCC3(CCCC(=O)N3)CC2)s1.O=C(O)C(F)(F)F` | 10.31 | -21.2 |
| 45 | `COCCN(Cc1ccncc1)C(=O)C1COc2c(cccc2OC)C1` (stereo not drawn) | 11.3 | 0.9927 and 1.355 |
| 46 | `CC(C)c1noc(C(C)S(=O)(=O)Cc2nc(C3CC3)no2)n1` (stereo not drawn) | 17.47 | 13.2 |
| 47 | `CC(CO)(NC(=O)Nc1nncs1)C1CCCCC1` (stereo not drawn) | 7.686 | 15.39 |
| 48 | `Cc1noc2ncnc(N3CCC(O)(Cn4ccnc4)CC3)c12` | -45.73 | -44.52 |
| 49 | `Cc1c(S(=O)(=O)N(CCc2ccccc2)Cc2ccn(C)n2)cnn1C` | 3.228 | 30.04 |
| 50 | `OCC(CO)N1CCCC(Cc2ccnc(Nc3ccccn3)c2)C1` (stereo not drawn) | 0.08057 and 19.93 | -30.07 |
| 51 | `Cc1n[nH]c(C2CN(C(=O)c3cc(C4CC4)[nH]n3)CCO2)n1` (stereo not drawn) | 0.9093 | -4.31 |
| 52 | `Fc1cccc(Cl)c1CNCCCOc1ccccn1` | 12.27 | -3.739 and 7.442 |
| 53 | `CC(C)Cn1cncc1CNC(=O)c1cccc(Cn2cccn2)c1` | -12.46 and 0.7611 | -11.6 and 1.396 |
| 54 | `Cc1cc(C)n(CC2CCCN2C(=O)c2cccc(C#N)c2)n1` (stereo not drawn) | -1.103 | -3.428 |
| 55 | `Cc1noc(C)c1CN1CCC2(CC1)NC(=O)CC2c1ccccc1.O=C(O)C(F)(F)F` (stereo not drawn) | -9.687 | 48.31 |
| 56 | `[H][C@@]12OCCN(C(=O)c3occc3C)[C@@]1([H])CC[C@H]2OCc1ccncc1` | 20.92 | 13.65 |
| 57 | `CC(O)CNc1ccc(C#N)cc1C(F)(F)F` (stereo not drawn) | 6.741 | 2.207 |
| 58 | `CCOC(=O)CC1(Nc2nc(C)nc3c2cnn3C)CCCCC1` | 5.907 | 9.218 |
| 59 | `NC(=O)C(NC(=O)COCCc1ccccc1)c1ccccc1F` (stereo not drawn) | -4 | 8.922 and -0.2579 |
| 60 | `Cc1cc(O)nc(C2CCN(C(=O)CO)CC2)n1` | 9.022 and -3.159 | 6.388 |
| 61 | `Cc1cc(CN(C)C(=O)NC2CCN(c3ncccn3)CC2)no1` | 11.8 | 7.311 |
| 62 | `[H][C@]12CCC(=O)N(Cc3csc(C)n3)[C@@]1([H])CCN2C(=O)COCC` | -13.17 | -14.04 |
| 63 | `CCC(=O)N1CCCCC1c1nc(O)c2c(n1)CN(S(C)(=O)=O)CC2` (stereo not drawn) | -6.193 and -6.775 | -39.83 |
| 64 | `Cc1ccc(NS(=O)(=O)c2cc(C(=O)O)oc2C)c(Br)c1` | -13.92 | 1.666 |
| 65 | `COCc1ccccc1CNC(=O)CN1CCCC1c1noc(C)n1` (stereo not drawn) | 6.103 | 17.9 |
| 66 | `N#Cc1ccc(NC2CCN(CC(F)F)CC2)c(F)c1` | 10.61 | 5.639 and 3.645 |
| 67 | `CC(C)Cc1cc(C(=O)N2CCC(C(=O)N3CCOCC3)CC2)on1` | -8.33 | 3.336 and 7.186 |
| 68 | `COCCc1noc(CN2CC(n3nc(C)cc3C)C2)n1` | -22.7 | -38.22 |
| 69 | `Cc1cc(C)n(CC2CCCN2C(=O)c2ccc3nncn3c2)n1` (stereo not drawn) | -12.37 | -21.74 |
| 70 | `O=C(Cc1c(F)cccc1Cl)Nc1cccc(N2CCCC2)c1` | -3.252 | 25.45 |
| 71 | `CCC(NCc1ccccc1)c1ccccc1OCC(=O)NC` (stereo not drawn) | 6.244 | 31.99 |
| 72 | `COc1ccc(CNC(=O)Nc2cccnc2N2CCCC2)cc1` | -8.129 | 19.2 |
| 73 | `CCCn1nc(C(=O)NC2(c3ccc(Cl)cc3)CCCC2)ccc1=O` | -1.875 | 7.158 and -5.362 |
| 74 | `O=C(c1cccc2c1OCCO2)N1CCCC(n2cccn2)C1` (stereo not drawn) | -11.21 | -4.753 |
| 75 | `CC(C)c1ccc(CC(=O)N2CCCC3(CN(C)C(=O)O3)C2)cc1` (stereo not drawn) | -9.652 | -14.39 |
| 76 | `CCN(CC)C(=O)c1cnc(Sc2nccn2C)c(Cl)c1` | 4.988 | -34.63 |
| 77 | `[H][C@@]12OCCN(C(=O)c3ccc(OC)c(F)c3)[C@@]1([H])CC[C@H]2OCC` | 14.72 | 11.8 and 14.21 |
| 78 | `CCCNC(=O)c1cc2c(nc1O)CCC(C)C2` (stereo not drawn) | -8.821 | -9.744 |
| 79 | `[H][C@@]12COC[C@]1([H])[C@@H](OCc1cccnc1)CN2C(=O)C1CCOCC1` | 9.229 | 3.202 |
| 80 | `Cc1ccc(NC(=O)N(C)C)c(C(=O)OCC(=O)NC2CCCC2)c1` | 13.34 | -17.1 and 4.147 |
| 81 | `O=C(C1CC1)N1CCCC1C1CCN(Cc2ccccc2)CC1` (stereo not drawn) | 1.396 | 15.71 and -25.85 |

Once more, the final 8:

Compound,Mtb cholesterol medium,Mtb glucose medium
O=C(c1cccc2c1OCCO2)N1CCCC(n2cccn2)C1 (stereo not drawn),-11.21,-4.753
CC(C)c1ccc(CC(=O)N2CCCC3(CN(C)C(=O)O3)C2)cc1 (stereo not drawn),-9.652,-14.39
CCN(CC)C(=O)c1cnc(Sc2nccn2C)c(Cl)c1,4.988,-34.63
[H][C@@]12OCCN(C(=O)c3ccc(OC)c(F)c3)[C@@]1([H])CC[C@H]2OCC,14.72,11.8 and 14.21
CCCNC(=O)c1cc2c(nc1O)CCC(C)C2 (stereo not drawn),-8.821,-9.744
[H][C@@]12COC[C@]1([H])[C@@H](OCc1cccnc1)CN2C(=O)C1CCOCC1,9.229,3.202
Cc1ccc(NC(=O)N(C)C)c(C(=O)OCC(=O)NC2CCCC2)c1,13.34,-17.1 and 4.147
O=C(C1CC1)N1CCCC1C1CCN(Cc2ccccc2)CC1 (stereo not drawn),1.396,15.71 and -25.85